Assay results as given in PubChem BioAssay AID540256 (National Center for Advancing Translational Sciences (NCATS), 2011).
Hit rate of the full screen: of about 300,000 compounds, about 3,700 (1.2%) were called active. Inconclusive results, whose numbers are uncertain, are shown with a selection of clear calls. The call rests on the fitted dose curve; tested in HEK293 cells. Where the call is inconclusive, the potency comes from a doubtful curve fit.

Test: qHTS for Inhibitors of binding or entry into cells for Lassa Virus; further: nearly all actives have a fitted effect of over 50% in size
Details: Lassa virus pseudotype entry inhibition, cell reporter; activity change, negative = inhibition: at 37.9 µM (top of the series) unless noted
On the % scale 0 is the no-effect control and ±100 the full control effect; potency means the concentration at half of the fitted maximal effect.

Structure (SMILES) | Potency | activity change, negative = inhibition
COc1ccc(NC(=S)NN(C)C(=S)Nc2ccc(OC)cc2)cc1 | inconclusive: 1.64 µM [inhibitor, full curve] | –
CCCCOC(=O)Nc1ccc(N(C)C)cc1 | inconclusive: 31.6 µM [inhibitor, single point] | –
Cc1ccc(NC(=O)C2CCCN2C(=O)NC2CCCCC2)c(C)c1 (stereo unspecified) | inactive | –
Cn1nc(-c2ccc(N3CCOCC3)c(NS(=O)(=O)c3ccccc3)c2)c2ccccc2c1=O | inconclusive: 32.6 µM [inhibitor, single point] | –
Cc1ccc(SCc2nc(-c3ccc(C(=O)NCc4ccc(Cl)cc4)cc3)oc2C)cc1 | inactive | –
COc1cc(C(=O)Nc2nc3nc(-c4ccccc4)cc(=O)n3[nH]2)cc(OC)c1OC | inactive | –
Cc1ccn2c(=O)cc(CSc3nnc(NC(=O)c4ccccc4Cl)s3)nc2c1 | inactive | –
O=C(NC1CCCCC1)c1cc(Nc2cccc(C(F)(F)F)c2)nc2ccccc12 | inconclusive: 0.794 µM [activator, full curve, poor fit] | –
O=C(NC(=S)Nc1cc(-c2nc3ccccc3[nH]2)ccc1Cl)c1ccc2c(c1)OCO2 | inconclusive: 29.1 µM [inhibitor, single point] | –
Cc1ccccc1/C(N)=N/OC(=O)/C=C/c1ccccc1 | inactive | –
O=C(/C=C/c1cccs1)NCc1ccc2c(c1)OCO2 | inconclusive: 0.562 µM [activator, full curve, poor fit] | –
Cc1ccn2c(Nc3ccccc3C)c(-c3ccccn3)nc2c1 | inconclusive: 35.5 µM [inhibitor, single point] | –
COc1cc(-c2nc3nc[nH]n3c2Nc2ccc(C(C)C)cc2)ccc1O | inconclusive: 1.12 µM [inhibitor, full curve, poor fit] | –
OCCN1CCN(CCCc2c3c(cc4c2CCC4)CCC3)CC1 | inconclusive: 4.11 µM [inhibitor, full curve] | –
Clc1ccccc1-c1nn2c(-c3ccncc3)nnc2s1 | inconclusive: 25.9 µM [inhibitor, partial curve, poor fit] | –
C=C(C)Cn1c(=O)c2c(nc3n2CCCN3Cc2ccccc2)n(C)c1=O | inconclusive: 17.8 µM [inhibitor, single point] | –
COCCN(C(=O)Cn1nnc2ccccc21)C(C(=O)NC1CCCC1)c1cccc(OC)c1OC (stereo unspecified) | inactive | –
Cc1ccc(C(=O)N/C(=C\c2ccco2)C(=O)NCCCn2ccnc2)cc1 | inactive | –
COc1ccc(-c2cc(C(=O)N(C)Cc3ccccc3)no2)cc1OC | inconclusive: 20.6 µM [inhibitor, single point] | –
CCOC(=O)c1c(C)n(CCOc2ccccc2)c2ccc(O)cc12 | inactive | –
CCOc1cc(C(=O)Nc2cc(C)ccc2C)ccc1OCC(=O)N1CCCCC1 | inactive | –
CCOc1cccc(-c2cc(C(=O)N/N=C/c3ccc(OC)c(CN4CCOCC4)c3)c3ccccc3n2)c1 | inconclusive: 29.1 µM [inhibitor, single point] | –
COc1ccc(NC(=S)NCCc2c[nH]c3ccccc23)cc1 | inconclusive: 4.11 µM [inhibitor, full curve] | –
Cc1ccc(S(=O)(=O)N2CCN(CC(=O)N/N=C/c3ccc(Br)s3)CC2)cc1 | inconclusive: 22.4 µM [inhibitor, single point] | –

Structure (SMILES) | Potency | activity change, negative = inhibition
CCOC(=O)C1CCN(C(=O)Cn2c(=O)cc(C)c3c(C)nn(C)c32)CC1 | – | inconclusive: 25.2% [activator] [at 46.1 µM]
O=C(CC(=O)Nc1ccccc1)Nc1ccccc1 | inactive | –
CCN(CC)S(=O)(=O)c1ccc(NC(=O)c2cccs2)cc1 | inconclusive: 35.5 µM [inhibitor, partial curve, poor fit] | –
Cc1cc(N2CCCCC2)nc2ccc(NC(=O)c3ccc(Br)o3)cc12 | inconclusive: 20.6 µM [inhibitor, single point] | –
O=C(CCNC(=O)c1ccccc1Cl)NN1C(=O)NC2(CCCCC2)C1=O | inconclusive: 12.6 µM [activator, partial curve, poor fit] | –
COc1cc(NC(=O)CSc2nnc(-c3ccncc3)n2C2CCCCC2)ccc1NC(=O)c1ccco1 | inactive | –
O=C(Nc1ccn(Cc2ccccc2F)n1)c1ccc(COc2ccc(Cl)cc2Cl)o1 | active: 10 µM | –
Cc1ccc(O)c(C(=O)c2cnn(-c3ccccc3)c2)c1 | inactive | –
Cc1nnc(SCC(=O)N2CCc3ccccc3C2)s1 | inactive | –
COc1ccc(C(=O)NCCn2cc(SCC(=O)Nc3cccc(C)c3)c3ccccc32)cc1 | inconclusive: 35.5 µM [inhibitor, single point] | –
O=c1c2cnn(-c3ccccc3)c2nc(-c2cccs2)n1-c1ccc(Br)cc1 | inconclusive: 4.47 µM [inhibitor, single point] | –
Cc1ccc(-c2nc3ccccc3s2)cc1NC(=S)NC(=O)c1cccc2ccccc12 | inactive | –
O=C(c1ccc(C(=O)N2CCOCC2)nc1)N1CCOCC1 | inactive | –
O=C(NCCNc1ccc(Cl)cc1[N+](=O)[O-])c1cccnc1 | inconclusive: 4.47 µM [inhibitor, full curve, poor fit] | –
CCOC(=O)c1c(N)n(-c2cccc(OC)c2)c2nc3ccccc3nc12 | inactive | –
CCNc1nc(NC(C)C)nc(OCC)n1 | inactive | –
COc1cc(C(=O)Nc2cccc(-c3nc4ncccc4o3)c2C)cc(OC)c1OC | inactive | –
C/C(=N\NC(=O)c1cc(-c2ccc(C)s2)[nH]n1)c1ccncc1 | inactive | –
CCc1ccc(C(=O)c2cn(CC(=O)NCCc3ccc(OC)c(OC)c3)c3nc(C)ccc3c2=O)cc1 | inactive | –
C[C@]12C[C@H](O)[C@H]3[C@@H](CCC4=CC(=O)CC[C@@]43C)[C@@H]1CC[C@@H]2C(=O)CO | inconclusive: 20.6 µM [inhibitor, single point] | inconclusive: -56.8% [inhibitor]
CCc1ccc(-n2c(SCc3ccccc3F)nc3[nH]ncc3c2=O)cc1 | inconclusive: 20 µM [inhibitor, single point] | –
O=C(CNC(=O)c1ccc(S(=O)(=O)N2CCCC2)cc1)N/N=C/c1c(Cl)cccc1Cl | inconclusive: 0.562 µM [activator, single point] | –
COc1cc(OC)cc(-c2nc(-c3ccccc3OC)no2)c1 | inactive | –
N#C/C(=C\c1c(N(Cc2ccccc2)Cc2ccccc2)nc2ccccn2c1=O)C(N)=O | inconclusive: 35.5 µM [inhibitor, single point] | –

Single records, from the list above. Order of values: Potency | activity change, negative = inhibition
O=C(c1ccc(C(=O)N2CCOCC2)nc1)N1CCOCC1 is entered as inactive | –
COc1ccc(C(=O)NCCn2cc(SCC(=O)Nc3cccc(C)c3)c3ccccc32)cc1 is entered as inconclusive: 35.5 µM [inhibitor, single point] | –

Later entries

Structure (SMILES) | Potency | activity change, negative = inhibition
CCCC1CCC(c2ccc(C(=O)NN)cc2)CC1 (stereo unspecified) | inconclusive: 1.26 µM [inhibitor, partial curve, poor fit] | –
CC(NC(=O)c1ccc(N)cc1)c1ccccc1 (stereo unspecified) | inactive | –
COc1ccc(OC)c(S(=O)(=O)N2CCC(c3ccncc3)CC2)c1 | inactive | –
CCCCOc1ccc(/C=N/NC(=O)c2csc(C)c2C)cc1 | inconclusive: 3.16 µM [inhibitor, full curve, poor fit] | –
COc1ccc2[nH]c3c(NCCCOC(C)C)ncnc3c2c1 | inconclusive: 11.2 µM [inhibitor, single point] | –
Cc1ccc(C(=O)N2CCN(c3ccc(NC(=O)c4ccc5c(c4)OCCO5)cc3)CC2)cc1 | inconclusive: 3.98 µM [inhibitor, full curve] | –
Cn1ccc(C(=O)Nc2ccc(Br)cc2Br)n1 | inconclusive: 2.59 µM [activator, partial curve] | –
Cc1cccc(Nc2nc(N)c([N+](=O)[O-])c(N3CCC(C)CC3)n2)c1 | inconclusive: 6.31 µM [inhibitor, partial curve, poor fit] | –
O=C(C1CCN(c2nnc(-n3cccc3)s2)CC1)N1CCN(c2cccc(C(F)(F)F)c2)CC1 | inconclusive: 11.2 µM [inhibitor, partial curve, poor fit] | –
COc1cccc(NC(=O)CSC2=Nc3ccccc3C3=NC(CC(=O)NCCc4ccccc4)C(=O)N23)c1 (stereo unspecified) | inactive | –
O=C(CCC(=O)N1CCCc2ccccc21)N1CCN(S(=O)(=O)c2ccccc2)CC1 | inactive | –
Cc1ccc(N(CC(O)COCc2ccco2)S(=O)(=O)c2ccc(C)cc2)cc1 (stereo unspecified) | inactive | –
CCCC(=O)Nc1cc(C)c(NC(=O)c2ccncc2)cn1 | active: 2.82 µM | –
COc1ccc2c(C)cc(N3CCCCCC3)nc2c1 | inconclusive: 10 µM [inhibitor, partial curve, poor fit] | –
Clc1ccc(C(c2ccccc2)N2CCN(c3ccccn3)CC2)cc1 (stereo unspecified) | inactive | –
CCOc1ccc(OCc2cccc(C(=O)N(CC)CC)c2)cc1 | inconclusive: 11.2 µM [inhibitor, partial curve, poor fit] | –
CCCN(CCC)CCc1c[nH]c2ccc(C(N)=O)cc12 | inconclusive: 3.66 µM [inhibitor, single point] | –
CC1CC(=O)Nc2ccccc2N1C(=O)COc1ccc2cc(Br)ccc2c1 (stereo unspecified) | inconclusive: 11.2 µM [inhibitor, partial curve, poor fit] | –
CC(C)Oc1cccc(C(=O)NC(=S)Nc2cccc(C(F)(F)F)c2)c1 | inconclusive: 10 µM [inhibitor, partial curve, poor fit] | –
O=C(COC(=O)c1ccc2c(c1)C(=O)N(c1cccc3ncccc13)C2=O)c1ccc(Cl)cc1 | inconclusive: 35.5 µM [inhibitor, single point] | –
Cc1cccc(N2C(=O)/C(=C/N3CCN(C(=O)c4ccco4)CC3)C(=O)NC2=S)c1 | inactive | –
CCc1c(O)nc(SCC(=O)Nc2ccccc2C)n(-c2ccc(C)cc2)c1=O | inconclusive: 35.5 µM [activator, single point] | –

Of the compounds above, these have a nitro group on carbon:
Structure (SMILES) | Potency | activity change, negative = inhibition
O=C(NCCNc1ccc(Cl)cc1[N+](=O)[O-])c1cccnc1 | inconclusive: 4.47 µM [inhibitor, full curve, poor fit] | –
Cc1cccc(Nc2nc(N)c([N+](=O)[O-])c(N3CCC(C)CC3)n2)c1 | inconclusive: 6.31 µM [inhibitor, partial curve, poor fit] | –
